Measured values published in paper PMC9847679, “The anti-breast cancer stem cell properties of gold(I)-non-steroidal anti-inflammatory drug complexes” (Chemical Science, 2022).

Tested on: HMLER-shEcad cells
Experiment: Cellular uptake and fractionation (ICP-MS gold content)
Assay type: cell-based, human
Settings: 0.25 μM for 24 h, fractionation

COc1ccc2c(c1)c(CC(=O)[O][Au][PH](c1ccccc1)(c1ccccc1)c1ccccc1)c(C)n2C(=O)c1ccc(Cl)cc1 [complex 1]
internalised gold detected in the cytoplasm: 80%
